Data: patent publication US20090221468
The exact form of at least one protein or probe is not confirmed. Results from cells or extracts need not show a direct contact. For some assays here: Protein sequences can lack the tags named with them.

Amino acid sequences for entries named in this document (tags omitted). Residues count along the entry.
UniProt P25205, 2-808: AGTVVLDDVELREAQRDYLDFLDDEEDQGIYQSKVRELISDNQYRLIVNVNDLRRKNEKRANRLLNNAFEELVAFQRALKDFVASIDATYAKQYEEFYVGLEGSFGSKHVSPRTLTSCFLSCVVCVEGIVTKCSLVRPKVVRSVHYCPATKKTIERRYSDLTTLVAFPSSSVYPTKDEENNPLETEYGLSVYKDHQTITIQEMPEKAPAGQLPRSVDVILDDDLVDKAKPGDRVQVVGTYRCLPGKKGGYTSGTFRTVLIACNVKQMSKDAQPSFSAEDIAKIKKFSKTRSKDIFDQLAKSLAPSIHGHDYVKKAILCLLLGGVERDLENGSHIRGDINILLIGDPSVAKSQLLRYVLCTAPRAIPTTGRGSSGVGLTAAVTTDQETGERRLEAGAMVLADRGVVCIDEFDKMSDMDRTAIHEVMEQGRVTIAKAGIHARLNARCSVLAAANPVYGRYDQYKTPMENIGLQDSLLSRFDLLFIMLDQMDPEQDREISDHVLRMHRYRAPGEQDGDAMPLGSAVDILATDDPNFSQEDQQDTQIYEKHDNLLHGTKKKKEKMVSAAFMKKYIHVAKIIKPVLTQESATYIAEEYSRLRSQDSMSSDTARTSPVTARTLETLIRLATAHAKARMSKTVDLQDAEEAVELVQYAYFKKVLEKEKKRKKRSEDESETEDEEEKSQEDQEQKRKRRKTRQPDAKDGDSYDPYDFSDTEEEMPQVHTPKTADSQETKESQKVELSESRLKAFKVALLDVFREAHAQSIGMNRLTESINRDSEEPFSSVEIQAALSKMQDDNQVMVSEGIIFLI

Key:
[1] = target: MCM3 (endogenous) (Homo sapiens) (UniProt P25205); test: binding assay; conditions: ChIP in G1/S-arrested PEL cells and transfected 293 cells; protein in cells
[2] = target: T1, ORC2 (endogenous) (Homo sapiens) (UniProt Q13416); test: binding assay; conditions: ChIP in G1/S-arrested PEL cells and transfected 293 cells; protein in cells
T1 sequence (looked up, limits assumed): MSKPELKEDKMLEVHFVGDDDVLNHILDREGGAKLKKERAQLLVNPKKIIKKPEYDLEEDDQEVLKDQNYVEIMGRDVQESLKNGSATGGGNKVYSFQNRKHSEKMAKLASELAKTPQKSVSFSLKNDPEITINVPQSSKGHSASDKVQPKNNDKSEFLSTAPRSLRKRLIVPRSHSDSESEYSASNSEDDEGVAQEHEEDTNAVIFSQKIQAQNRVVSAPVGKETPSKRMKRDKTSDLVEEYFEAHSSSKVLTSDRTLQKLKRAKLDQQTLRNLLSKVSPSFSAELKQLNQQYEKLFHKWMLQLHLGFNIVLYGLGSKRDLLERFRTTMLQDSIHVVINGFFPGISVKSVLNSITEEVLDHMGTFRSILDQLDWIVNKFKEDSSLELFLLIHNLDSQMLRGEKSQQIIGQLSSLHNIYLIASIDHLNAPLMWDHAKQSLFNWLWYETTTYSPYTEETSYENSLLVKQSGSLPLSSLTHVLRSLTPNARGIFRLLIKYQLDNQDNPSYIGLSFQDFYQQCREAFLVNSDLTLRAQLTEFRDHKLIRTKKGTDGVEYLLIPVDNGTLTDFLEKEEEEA

GGATCCCGGCGCGCCACCCTCCCCGGCAACAACCTGTTGCCATGTATGGCGATTTGTATCAGTCACAAGCACACAACCCCTGCTAGTATTAATGGTGTTTAAAACGTTCTACACGTACGGCGGACCGCATCCGTCGCAAGCACGCGCATATAACCCCCAAATGCACCATGATGAGAAGCACAGCCACGCGTCAAAAAACTTTAAAAACATCGTTATCCAATATCATTAAAAACCACACCGAAATTTACACAGGTAGCACGTCACCGTGTTAGTGTCACCCACTGTACACAAGGCGTGTCGTATATGTAGTATAGGTATTTGATGAGGCGGAAGCATATCCCGCTTCCAGCGAACGGAAATAAGAATCATCCGTTCCAGCATTTATTCAAAGAGGGCACAGAGGATTCACATTGTTTAGAGAGAGTTTTTCTTAGTCACCATTCCATACTTGGGCAGTATTGGCCTACGATTTGGGCGACGTTTCAGGCTGGTCTATTCTCCGTCCACTTTTCCCCGGCTATTCTGTCCCAGCATAGGCTCTTGAAATAAACAATGTTTACCGAGTAAAAGGTTCCACTCACCCTCATTTGTCGTTGCACCCATCCCCCCTTTGCTTAATCACCCGAAAACTAGAGGACACGGATGGAAAACATATCGCACGCGGGTTGTTTGAAAGTCAACAGCTACTTGTTTTTAATGAGGACAGATTTGGGCACAGGCCAGAGGGTAAAGCCCTACGTGTGCGCGGGGGGGGGGGTGTATACGCTGCGAAAACCTGCACGGTGCATAACACCCAGGGCGTCACGTCACATATCTCTGTGCACCCAAGTGGTTGT (double strand) [AT-rich region of G fragment]
binding result [1]: binds | binding result [2]: binds
